According to article PMC8525514:
These are yes or no findings as the source states them, for the method shown. Binding seen in cells or lysates may run through a third protein. Binding can be weak; no strength is given. Where a sequence is shown, tags or fusion partners need not be part of it.

Target: GFP-SAP05 (Aster Yellows phytoplasma strain Witches' Broom (AY-WB; Ca. Phytoplasma asteris))
Assay: co-IP; 3XHA-TFs and GFP-SAP05 or GFP co-expressed in N. benthamiana leaves by agroinfiltration; precipitation of GFP-SAP05, blot for HA

Row | Binder | binding
1 | HA-tagged GATA18 (protein, UniProt Q8LC79 1-295) MMQTPYTTSTQGQYCHSCGMFHHHSQSCCYNNNNNSNAGSYSMVFSMQNGGVFEQNGEDYHHSSSLVDCTLSLGTPSTRLCEEDEKRRRSTSSGASSCISNFWDLIHTKNNNSKTAPYNNVPSFSANKPSRGCSGGGGGGGGGGGGDSLLARRCANCDTTSTPLWRNGPRGPKSLCNACGIRFKKEERRTTAATGNTVVGAAPVQTDQYGHHNSGYNNYHAATNNNNNNGTPWAHHHSTQRVPCNYPANEIRFMDDYGSGVANNVESDGAHGGVPFLSWRLNVADRASLVHDFTR | binds
2 | HA-tagged SPL5 (protein, UniProt Q9S758 1-181) MEGQRTQRRGYLKDKATVSNLVEEEMENGMDGEEEDGGDEDKRKKVMERVRGPSTDRVPSRLCQVDRCTVNLTEAKQYYRRHRVCEVHAKASAATVAGVRQRFCQQCSRFHELPEFDEAKRSCRRRLAGHNERRRKISGDSFGEGSGRRGFSGQLIQTQERNRVDRKLPMTNSSFKRPQIR | binds
